In PMC10570366, “Molecular mechanism of decision-making in glycosaminoglycan biosynthesis” (Nature Communications, 2023):
Results are given in words; binding and its absence hold for the method and conditions named. Some binding calls cover weakened binding; strength is not graded here. Where a sequence is shown, tags or fusion partners need not be part of it.

Target: T1, FLAG-EXT1 (human) (UniProt Q16394)
T1 sequence: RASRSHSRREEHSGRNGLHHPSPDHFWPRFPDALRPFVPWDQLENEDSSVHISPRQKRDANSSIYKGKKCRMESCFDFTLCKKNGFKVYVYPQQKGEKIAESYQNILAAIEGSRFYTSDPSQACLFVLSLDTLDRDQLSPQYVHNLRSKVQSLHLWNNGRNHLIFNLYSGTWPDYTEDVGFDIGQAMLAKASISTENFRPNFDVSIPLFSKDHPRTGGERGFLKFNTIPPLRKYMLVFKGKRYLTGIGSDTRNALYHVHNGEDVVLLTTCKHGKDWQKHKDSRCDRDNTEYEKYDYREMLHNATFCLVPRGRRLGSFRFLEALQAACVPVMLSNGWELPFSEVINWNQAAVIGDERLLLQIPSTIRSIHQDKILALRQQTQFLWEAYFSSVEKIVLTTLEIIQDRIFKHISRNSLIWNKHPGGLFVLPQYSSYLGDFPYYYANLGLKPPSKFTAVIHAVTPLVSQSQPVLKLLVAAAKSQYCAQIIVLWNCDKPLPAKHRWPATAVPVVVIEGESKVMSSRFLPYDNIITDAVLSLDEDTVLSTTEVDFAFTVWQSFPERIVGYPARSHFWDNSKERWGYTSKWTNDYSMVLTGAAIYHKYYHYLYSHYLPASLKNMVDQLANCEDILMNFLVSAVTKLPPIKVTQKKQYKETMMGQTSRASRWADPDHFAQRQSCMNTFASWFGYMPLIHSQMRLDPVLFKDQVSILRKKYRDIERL
Experiment: co-purification (anti-FLAG affinity resin, then SEC); FLAG-EXT1 and His-EXT2 co-expressed in Expi293F; cleared medium on anti-DYKDDDK resin, washed with 25 mM Na-HEPES pH 7.5, 150 mM NaCl, eluted with FLAG peptide, then size exclusion chromatography

- binding: binds
B1: His-EXT2 (enzyme, UniProt Q93063 47-718)
chain: PHSIESSNDWNVEKRSIRDVPVVRLPADSPIPERGDLSCRMHTCFDVYRCGFNPKNKIKVYIYALKKYVDDFGVSVSNTISREYNELLMAISDSDYYTDDINRACLFVPSIDVLNQNTLRIKETAQAMAQLSRWDRGTNHLLFNMLPGGPPDYNTALDVPRDRALLAGGGFSTWTYRQGYDVSIPVYSPLSAEVDLPEKGPGPRQYFLLSSQVGLHPEYREDLEALQVKHGESVLVLDKCTNLSEGVLSVRKRCHKHQVFDYPQVLQEATFCVVLRGARLGQAVLSDVLQAGCVPVVIADSYILPFSEVLDWKRASVVVPEEKMSDVYSILQSIPQRQIEEMQRQARWFWEAYFQSIKAIALATLQIINDRIYPYAAISYEEWNDPPAVKWGSVSNPLFLPLIPPQSQGFTAIVLTYDRVESLFRVITEVSKVPSLSKLLVVWNNQNKNPPEDSLWPKIRVPLKVVRTAENKLSNRFFPYDEIETEAVLAIDDDIIMLTSDELQFGYEVWREFPDRLVGYPGRLHLWDHEMNKWKYESEWTNEVSMVLTGAAFYHKYFNYLYTYKMPGDIKNWVDAHMNCEDIAMNFLVANVTGKAVIKVTPRKKFKCPECTAIDGLSLDQTHMVERSECINKFASVFGTMPLKVVEHRADPVLYKDDFPEKLKSFPNIGSL
